Results are given in words; binding and its absence hold for the method and conditions named. Binding seen in cells or lysates may run through a third protein. Binding calls can cover weak binding; strength is not graded here. Values belong to the molecule of their own block, whether it stands above or below them.
Key:
[1] = target: T7-tagged SOCS6 SOCS box mutant LCQQ (mouse) (UniProt Q9JLY0); assay: co-IP; anti-T7 antibody immunoprecipitates of HeLa cells transiently expressing T7-tagged wildtype or mutant SOCS6; Western blotting with antibodies to Cas, ElonginB and T7
[2] = target: T7-tagged Cul5^KR (mutated to inhibit Cullin activity) (UniProt Q9D5V5); assay: co-IP; HeLa cells co-transfected with mCherry constructs and pCAGT7Cul5KR; immunoprecipitation with mouse anti-T7 and protein A beads; blots with anti-T7 or anti-mCherry

Chains of the proteins cited; added tags and fusions are not shown. Lines headed by an entry give the natural chain unless they say otherwise; changes in a name come on top.
UniProt Q9D5V5: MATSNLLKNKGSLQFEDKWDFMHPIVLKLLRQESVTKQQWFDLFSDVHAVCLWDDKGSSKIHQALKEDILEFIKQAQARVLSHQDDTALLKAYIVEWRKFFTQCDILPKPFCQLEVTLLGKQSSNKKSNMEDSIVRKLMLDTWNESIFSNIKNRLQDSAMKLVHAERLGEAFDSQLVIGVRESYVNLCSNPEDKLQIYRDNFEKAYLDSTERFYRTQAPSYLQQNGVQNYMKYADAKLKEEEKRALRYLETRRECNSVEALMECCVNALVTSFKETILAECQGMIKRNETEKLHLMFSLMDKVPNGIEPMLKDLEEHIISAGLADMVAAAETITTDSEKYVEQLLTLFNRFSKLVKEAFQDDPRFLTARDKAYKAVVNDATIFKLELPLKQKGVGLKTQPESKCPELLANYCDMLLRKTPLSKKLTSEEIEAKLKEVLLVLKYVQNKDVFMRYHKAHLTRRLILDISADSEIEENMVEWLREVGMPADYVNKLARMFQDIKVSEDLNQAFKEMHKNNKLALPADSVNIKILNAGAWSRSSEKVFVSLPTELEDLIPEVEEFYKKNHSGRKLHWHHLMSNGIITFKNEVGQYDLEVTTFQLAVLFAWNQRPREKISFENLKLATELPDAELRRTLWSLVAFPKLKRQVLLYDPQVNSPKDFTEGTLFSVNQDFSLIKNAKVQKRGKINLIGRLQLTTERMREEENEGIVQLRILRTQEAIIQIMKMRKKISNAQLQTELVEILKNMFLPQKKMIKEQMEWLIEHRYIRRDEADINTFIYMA
UniProt Q15370: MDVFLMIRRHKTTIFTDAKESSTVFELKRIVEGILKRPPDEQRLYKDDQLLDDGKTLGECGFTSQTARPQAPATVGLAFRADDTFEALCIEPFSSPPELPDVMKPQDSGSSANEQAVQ

binding [1]: no binding
Molecule: ElonginB, endogenous (from UniProt Q15370 1-118)

binding [2]: binds
B1: mCherry-SOCS6 (protein, UniProt Q9JLY0 1-533)
chain: MKKISLKTFRKSFNLSKSKDETEFMVVQPQSLAGDFVKDDSLFGSCYGKDMASCDIGSEDEKGKNRSKSESLMGTLKRRLSAKQKTKGKGGTASTDEDTFSSASAPGGLKDVRAPRPIRSTSLRSHHYSPTPWPLRPTSSEETCIKMEMRVKALVHAASPGPVNGVRKDLRELQPRELRDLQPEPRPESRCSPSSPGDLSLHLEEHVPVVIGLMSQDYLQYTVPLDDGMCPLEGPRSCCLDTSSPMEVSAVPLPGASGAFSEDDSHVDQDLVVGPEILVDSSVNNLLIGTTGVMLQSPRGGHDDAPPLSPLLPPMQNNPIQRNFSGLSGPDLHMAESVRCHLNFDPNSAPGVARVYDSVQSSGPMVVTSLTEELKKLAKQGWYWGPITRWEAEGKLANVPDGSFLVRDSSDDRYLLSLSFRSHGKTLHTRIEHSNGRFSFYEQPDVEGHTSIVDLIEHSIRDSENGAFCYSRSRLPGSATYPVRLTNPVSRFMQVRSLQYLCRFVIRQYTRIDLIQKLPLPNKMKDYLQEKHY

binding [1]: binds
B2: Cas (Crk-associated substrate/p130Cas/BCAR1), endogenous (protein, UniProt P56945 1-870)
chain: MNHLNVLAKALYDNVAESPDELSFRKGDIMTVLEQDTQGLDGWWLCSLHGRQGIVPGNRLKILVGMYDKKPAGPGPGPPATPAQPQPGLHAPAPPASQYTPMLPNTYQPQPDSVYLVPTPSKAQQGLYQVPGPSPQFQSPPAKQTSTFSKQTPHHPFPSPATDLYQVPPGPGGPAQDIYQVPPSAGMGHDIYQVPPSMDTRSWEGTKPPAKVVVPTRVGQGYVYEAAQPEQDEYDIPRHLLAPGPQDIYDVPPVRGLLPSQYGQEVYDTPPMAVKGPNGRDPLLEVYDVPPSVEKGLPPSNHHAVYDVPPSVSKDVPDGPLLREETYDVPPAFAKAKPFDPARTPLVLAAPPPDSPPAEDVYDVPPPAPDLYDVPPGLRRPGPGTLYDVPRERVLPPEVADGGVVDSGVYAVPPPAEREAPAEGKRLSASSTGSTRSSQSASSLEVAGPGREPLELEVAVEALARLQQGVSATVAHLLDLAGSAGATGSWRSPSEPQEPLVQDLQAAVAAVQSAVHELLEFARSAVGNAAHTSDRALHAKLSRQLQKMEDVHQTLVAHGQALDAGRGGSGATLEDLDRLVACSRAVPEDAKQLASFLHGNASLLFRRTKATAPGPEGGGTLHPNPTDKTSSIQSRPLPSPPKFTSQDSPDGQYENSEGGWMEDYDYVHLQGKEEFEKTQKELLEKGSITRQGKSQLELQQLKQFERLEQEVSRPIDHDLANWTPAQPLAPGRTGGLGPSDRQLLLFYLEQCEANLTTLTNAVDAFFTAVATNQPPKIFVAHSKFVILSAHKLVFIGDTLSRQAKAADVRSQVTHYSNLLCDLLRGIVATTKAAALQYPSPSAAQDMVERVKELGHSTQQFRRVLGQLAAA

— publication PMC5092051
